From PubChem BioAssay AID493014 (National Center for Advancing Translational Sciences (NCATS), 2011)
The list shows a part of the results. The main result of the screen is listed elsewhere. These columns were measured beside it and carry no call. Compounds called inactive in the main read-out are mostly missing here. Words in brackets tell the shape of the fitted curve; partial curves, single points and poor fits give uncertain potencies.

Experiment: qHTS Assay to Find Inhibitors of Chronic Active B-Cell Receptor Signaling
Conditions: ABC-DLBCL IkBa-CBG/CBR reporter, luminescence ratio (green luciferase fused to IkBa over red control in TMD8 lymphoma cells), 4 h
In short: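 Doxycycline induced both beetle luciferases in TMD8 lymphoma cells; IKK-driven degradation limits the IkappaBalpha-fused green signal, while red luminescence normalises for cell number and nonspecific effects. Compounds tested up to 46 uM, 4 hrs.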

[1] = measured here: IkBa-CBG green luminescence
[2] = measured here: CBR red luminescence, cell number

SMILES	AC50 [1]	AC50 [2]
Cc1cccc(NC(=S)NCc2ccc3[nH]c4c(c3c2)CCCC4)c1	29.1 µM [falling, single point]	
Cc1ccc2nc(N3CCOCC3)c(C=O)cc2c1		12.6 µM [rising, single point]
Nc1ccc2[nH]ncc2c1		10 µM [falling, partial curve]
O=C(CN1C(=O)C(=O)N(Cc2ccccc2)C1=O)Nc1cc(Cl)cc(Cl)c1	35.5 µM [falling, single point]	17.8 µM [rising, partial curve]
CCOc1ccc(NC(=O)CSc2nc(=O)n(Cc3ccccn3)c3c2CCC3)cc1		20.6 µM [falling, partial curve]
Cc1ccc(C)c(NC(=O)c2ncn[nH]2)c1		4.47 µM [falling, single point]
Cc1ccc(C)c(SCC(=O)Nc2ccc(S(=O)(=O)Nc3ncccn3)cc2)c1		8.91 µM [rising, partial curve, poor fit]
Cn1c(CNc2nc3ccccc3n2CCN2CCCCC2)nc2ccccc21	35.5 µM [rising, partial curve, poor fit]	25.1 µM [falling, single point]
CCCn1c(NC(=O)CN2C(=O)NC3(CCCCC3)C2=O)nc2ccccc21		23.1 µM [falling, partial curve, poor fit]
COc1ccc(-c2cn3cccc(C)c3n2)cc1Br		9.2 µM [rising, partial curve, poor fit]
O=C(Nc1cc2c(cc1Cl)OCCCO2)c1ccc(F)cc1		6.51 µM [rising, single point]
CCC/C(O)=C1\C(=O)CCCC1=NCCCCCC(=O)O		3.66 µM [falling, single point]
CCCc1ccc(OCc2ccc(C(=O)N3CCCC3)o2)cc1		35.5 µM [falling, single point]
Cc1ccc(CCSCC(=O)O)cn1		16.4 µM [falling, single point]
CCOc1ccccc1N1CCN(C(=O)CCNS(=O)(=O)c2ccccc2F)CC1		0.731 µM [falling, partial curve, poor fit]
COc1cc2cc(CN(Cc3cccnc3)C(=O)Nc3ccccc3F)c(=O)[nH]c2cc1OC	2.82 µM [rising, full curve]	3.98 µM [falling, full curve, poor fit]
C/C(CCC(C)C)=N\Nc1ccc(S(N)(=O)=O)cc1[N+](=O)[O-]		12.6 µM [rising, single point]
Cc1ccccc1N1CCN(C2CCCN(C(=O)c3cn4c(C)cccc4n3)C2)CC1 (centres undefined)		35.5 µM [falling, single point]
CCCCCOC(=O)c1c(N)n(CCOC)c2nc3ccccc3nc12		7.94 µM [falling, partial curve]
O=C(OCC(=O)N1CCc2ccccc21)c1cc(S(=O)(=O)N2CCOCC2)ccc1F		29.1 µM [falling, single point]
C/C(=N\NC(=O)c1ccccc1O)C1CC1		2 µM [falling, full curve]

In the list so far, 7 contain sulfur.
SMILES	AC50 [1]	AC50 [2]
Cc1cccc(NC(=S)NCc2ccc3[nH]c4c(c3c2)CCCC4)c1	29.1 µM [falling, single point]	
CCOc1ccc(NC(=O)CSc2nc(=O)n(Cc3ccccn3)c3c2CCC3)cc1		20.6 µM [falling, partial curve]
Cc1ccc(C)c(SCC(=O)Nc2ccc(S(=O)(=O)Nc3ncccn3)cc2)c1		8.91 µM [rising, partial curve, poor fit]
Cc1ccc(CCSCC(=O)O)cn1		16.4 µM [falling, single point]
CCOc1ccccc1N1CCN(C(=O)CCNS(=O)(=O)c2ccccc2F)CC1		0.731 µM [falling, partial curve, poor fit]
C/C(CCC(C)C)=N\Nc1ccc(S(N)(=O)=O)cc1[N+](=O)[O-]		12.6 µM [rising, single point]
O=C(OCC(=O)N1CCc2ccccc21)c1cc(S(=O)(=O)N2CCOCC2)ccc1F		29.1 µM [falling, single point]

Following part

SMILES	AC50 [1]	AC50 [2]
CCCn1c(NC(=S)Nc2ccccc2)nc2ccccc21		0.92 µM [rising, full curve, poor fit]
COc1ccc(NC(=O)c2ccc(N(C)S(C)(=O)=O)cc2)cc1OC		4.61 µM [falling, single point]
O=C(NCCc1ccco1)c1nn(Cc2ccccc2)c(=O)c2ccccc12		11.2 µM [falling, partial curve, poor fit]
O=C(COC(=O)c1ccc(O)cc1)Nc1ccccc1-c1ccccc1		29.1 µM [falling, single point]
CC(Nc1nc(N2CCCCC2)nc2ccccc12)c1ccccc1 (centres undefined)		29.1 µM [falling, single point]
Cc1cc(C)c[n+](-c2nc3ccccc3nc2C(=C=[N-])C#N)c1		29.1 µM [rising, single point]
Cc1ccc(S(=O)(=O)N(C(=O)c2ccco2)c2cc3sc(=O)oc3c3ccccc23)cc1		18.4 µM [falling, single point]
CCOCCn1c(C)c(C(=O)OCC)c2cc(O)c3ccccc3c21		1.46 µM [rising, partial curve]
CCCN(Cc1ccc(C)cc1)C(=O)c1ccc(CNS(=O)(=O)c2ccc(C(C)=O)cc2)cc1		14.6 µM [falling, single point]
O=[N+]([O-])c1ccc(C2Oc3ccccc3C3CC(c4ccccc4)=NN32)s1 (centres undefined)		14.6 µM [falling, single point]
Cc1c(NC(=O)c2ccc(COc3ccc4ccccc4c3)o2)c(=O)n(-c2ccccc2)n1C		22.4 µM [falling, single point]
COc1cc(NC(=O)CN2C(=O)NC(c3ccccc3)(c3ccccc3)C2=O)cc(OC)c1		22.4 µM [falling, single point]
COc1ccccc1C(=O)NCC(=O)N/N=C/c1cc(Br)ccc1OCc1ccccc1		0.259 µM [rising, full curve, poor fit]
O=C(N/N=C/c1cn(-c2ccccc2)nc1-c1cccs1)c1ccccc1F		13 µM [falling, partial curve, poor fit]
CCCC(C)c1nnc(NC(=O)C(=O)OCC)s1 (centres undefined)		0.1 µM [rising, full curve, poor fit]
Oc1ccc(C[C@H]2CNCCN2CCc2cc(C(F)(F)F)cc(C(F)(F)F)c2)cc1		23.1 µM [falling, partial curve, poor fit]
NC(=O)c1ccsc1NC(=O)CSc1ncnc2sccc12		1.64 µM [falling, full curve, poor fit]
COCCC(=O)N1CCC(Oc2ccc(C(=O)NCCC3=CCCCC3)cc2)CC1		3.98 µM [rising, single point]
CCOC(=O)C1C(=O)C=C(c2ccc(NS(C)(=O)=O)cc2)CC1c1ccco1 (centres undefined)		31.6 µM [falling, single point]
O=C(CCC1CCCN(C(=O)CCCc2ccccc2)C1)N1CCN(c2ccccn2)CC1 (centres undefined)		22.4 µM [rising, single point]
